Two molecules from article PMC11557686 can be followed below.

The chains behind the UniProt entries cited, without tags or fusion partners.
UniProt O15260: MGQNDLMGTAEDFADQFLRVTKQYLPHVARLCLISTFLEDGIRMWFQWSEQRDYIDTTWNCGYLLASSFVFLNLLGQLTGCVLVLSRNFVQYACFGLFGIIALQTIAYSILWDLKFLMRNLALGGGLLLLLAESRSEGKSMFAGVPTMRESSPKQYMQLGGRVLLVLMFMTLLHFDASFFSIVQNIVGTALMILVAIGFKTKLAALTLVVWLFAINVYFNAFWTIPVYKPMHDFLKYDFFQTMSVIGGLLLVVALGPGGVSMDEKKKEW

The target of one test is T1, SP-HA-TMED10 WT (UniProt P49755).
T1 sequence: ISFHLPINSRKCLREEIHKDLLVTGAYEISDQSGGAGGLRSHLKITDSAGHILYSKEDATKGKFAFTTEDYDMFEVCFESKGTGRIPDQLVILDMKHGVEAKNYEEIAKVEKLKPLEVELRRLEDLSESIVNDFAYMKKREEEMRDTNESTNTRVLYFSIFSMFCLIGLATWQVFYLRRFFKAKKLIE
Briefly: cross-linking + co-IP; HEK TREx-293 TMED10 KO cells co-transfected; 0.2 mM DSP in PBS with 0.2 mM CaCl2, RT 30 min; lysis in 1.0% Triton X-100, 150 mM NaCl, 2 mM CaCl2, pH 7.5; anti-HA agarose or anti-V5 on Protein G Sepharose; immunoblot.

The target in a further test is LgBiT-SURF4 (UniProt O15260). Put plainly: split reporter; LgBiT-SURF4 and SmBiT-SEC24A or SmBiT-SEC24C co-expressed in HEK-293TREx double KO cells; NanoGlo Live Cell Substrate, room temperature 15 min; luminescence normalised to WT; also after 4-PBA (4 h) or siRNA against TMED10, TMED2 or LMAN1.

These are yes or no findings as the source states them, for the method shown. In cells and extracts the contact can be indirect. Some binding calls cover weakened binding; strength is not graded here. For some assays here: Sequences can lack the tags named with a protein.

B1: endogenous Cab45 (protein, UniProt Q9BRK5 37-362)
chain: RPANHSSTRERVANREENEILPPDHLNGVKLEMDGHLNRGFHQEVFLGKDLGGFDEDAEPRRSRRKLMVIFSKVDVNTDRKISAKEMQRWIMEKTAEHFQEAMEESKTHFRAVDPDGDGHVSWDEYKVKFLASKGHSEKEVADAIRLNEELKVDEETQEVLENLKDRWYQADSPPADLLLTEEEFLSFLHPEHSRGMLRFMVKEIVRDLDQDGDKQLSVPEFISLPVGTVENQQGQDIDDNWVKDRKKEFEELIDSNHDGIVTAEELESYMDPMNEYNALNEAKQMIAVADENQNHHLEPEEVLKYSEFFTGSKLVDYARSVHEEF
Regarding B1, in the test with SP-HA-TMED10 WT, the binding entry is “no binding”.

B2: SmBiT-SEC24A (protein, UniProt O95486 1-1093)
chain: MSQPGIPASGGAPASLQAQNGAALASGSPYTNGPVQNALLSSQESVSQGYNFQLPGSYPHPIPAKTLNPVSGQSNYGGSQGSGQTLNRPPVASNPVTPSLHSGPAPRMPLPASQNPATTPMPSSSFLPEANLPPPLNWQYNYPSTASQTNHCPRASSQPTVSGNTSLTTNHQYVSSGYPSLQNSFIKSGPSVPPLVNPPLPTTFQPGAPHGPPPAGGPPPVRALTPLTSSYRDVPQPLFNSAVNQEGITSNTNNGSMVVHSSYDEIEGGGLLATPQLTNKNPKMSRSVGYSYPSLPPGYQNTTPPGATGVPPSSLNYPSGPQAFTQTPLGANHLTTSMSGLSLQPEGLRVVNLLQERNMLPSTPLKPPVPNLHEDIQKLNCNPELFRCTLTSIPQTQALLNKAKLPLGLLLHPFKDLVQLPVVTSSTIVRCRSCRTYINPFVSFLDQRRWKCNLCYRVNDVPEEFLYNPLTRVYGEPHRRPEVQNATIEFMAPSEYMLRPPQPPVYLFVFDVSHNAVETGYLNSVCQSLLDNLDLLPGNTRTKIGFITFDSTIHFYGLQESLSQPQMLIVSDIEDVFIPMPENLLVNLNESKELVQDLLKTLPQMFTKTLETQSALGPALQAAFKLMSPTGGRMSVFQTQLPTLGVGALKPREEPNHRSSAKDIHMTPSTDFYKKLALDCSGQQVAVDLFLLSGQYSDLASLGCISRYSAGSVYYYPSYHHQHNPVQVQKLQKELQRYLTRKIGFEAVMRIRCTKGLSIHTFHGNFFVRSTDLLSLPNVNPDAGYAVQMSVEESLTDTQLVSFQSALLYTSSKGERRIRVHTLCLPVVSTLNDVFLGADVQAISGLLANMAVDRSMTASLSDARDALVNAVIDSLSAYRSSVLSNQQPGLMVPFSLRLFPLFVLALLKQKSFQTGTNARLDERIFAMCQVKNQPLVYLMLTTHPSLYRVDNLSDEGALNISDRTIPQPPILQLSVEKLSRDGAFLMDAGSVLMLWVGKNCTQNFLSQVLGVQNYASIPQPMTDLPELDTPESARIIAFISWLREQRPFFPILYVIRDESPMKANFLQNMIEDRTESALSYYEFLLHIQQQVNK
Consider B2, for which the binding entry in the test with LgBiT-SURF4 was “binds”.
